Out of some 300,000 compounds screened, about 5,400 (1.8%) were called active. Inconclusive means that the source gave no clear call. Such entries were picked first, then a sample of the others. Calls follow the shape of the full dose curve; tested in HEK293 cells. A potency beside an inconclusive call is a rough fit, not a confirmed value.
Experiment: qHTS for inhibitors of binding or entry into cells for Marburg Virus
Details: Marburg virus pseudotyped entry inhibition, cell reporter; activity change, negative = inhibition: at 37.8 µM (top of the series) unless noted
% is scaled to controls: 0 for no effect and ±100 for the full control effect; potency is read from the fitted curve at half-maximal effect.

Compound | Potency | activity change, negative = inhibition
O=C(CN1C(=O)S/C(=C\c2ccc(O)cc2)C1=O)c1ccccc1 | inactive | –
Cc1ccc(C(=O)NCC(=O)OCC(=O)NC2CCS(=O)(=O)C2)cc1C (stereo not drawn) | inconclusive: 3.16 µM [activator, single point] | –
CC(=O)c1ccc(S(=O)(=O)N2CCC3(CC2)CC(=O)c2ccccc2O3)cc1 | inactive | –
Cc1ccc(C(=O)Nc2c(-c3ccccc3)nc3ccccn23)cc1 | inactive | –
O=C(NCC1CCCO1)C(=O)NCC1CCCN1S(=O)(=O)c1ccccc1 (stereo not drawn) | inconclusive: 17.8 µM [activator, single point] | –
COc1ccc(S(=O)(=O)N(C)c2ccc(C(=O)N3CCCC3)cc2)cc1 | inactive | –
O=C(CCC1CCCN(C(=O)COc2ccccc2)C1)N1CCN(c2ccccn2)CC1 (stereo not drawn) | inconclusive: 2.82 µM [inhibitor, partial curve, poor fit] | –
COc1ccc2c(c1)c(=Cc1ccc(N(C)C)cc1)c1cc(-c3ccccc3)[n+](C)n12 | active: 4.47 µM | –
Cc1cc(Sc2ncnc(N)c2[N+](=O)[O-])ncn1 | inconclusive: 10 µM [inhibitor, partial curve, poor fit] | –
C=CCN(C(=O)CC(NC(C)=O)c1ccccc1)c1nc(-c2ccc(S(C)(=O)=O)cc2)cs1 (stereo not drawn) | inactive | –
Cc1ccc2c3c(cccc13)-c1ccccc1C2=O | inactive | –
O=C(CSc1cccc[n+]1[O-])Nc1cc2c(cc1Cl)C(=O)c1ccccc1C2=O | inconclusive: 2.82 µM [activator, full curve, poor fit] | –
CCCCc1ccc(S(=O)(=O)N2CCC3(CC2)OCCO3)cc1 | inconclusive: 0.562 µM [activator, single point] | –
CCCCCCCCNc1ncnc2ccccc12 | inconclusive: 1.16 µM [inhibitor, full curve, poor fit] | –
C[n+]1cccc2c(Br)ccc([O-])c21 | inactive | –
COc1cccc(/C=C2/SC(=S)N(CCC(=O)N3CCOCC3)C2=O)c1 | active: 5.01 µM | –
CSCC[C@H](NC(=O)[C@@H]1Cc2ccccc2CN1)C(=O)NC1CCCCC1 | inactive | –
Cc1ccc(C)c(Nc2cc(C(=O)NCc3cccnc3)c3ccccc3n2)c1 | inconclusive: 7.94 µM [inhibitor, partial curve, poor fit] | –
CN(CC(=O)Nc1ccc(F)cc1)C(=O)CN1C(=O)NC2(CCCC2)C1=O | inconclusive: 6.31 µM [inhibitor, single point] | –
COc1ccc(NC(=O)CN2CCC(C(N)=O)(N3CCCCC3)CC2)c(OC)c1 | inactive | –
CNS(=O)(=O)c1cccc(C(=O)NNC(=O)c2ccc(COc3ccccc3)cc2)c1 | inconclusive: 2 µM [activator, single point] | –
COc1ccc2[nH]c3c(N4CCc5ccccc5C4)ncnc3c2c1 | active: 0.708 µM | –
CC(C)(CO)Nc1nc(Nc2ccccc2)nc(Nc2ccccc2)n1 | inactive | –
COc1cc(/C=C/c2nc(C#N)c(N3CCCCC3)o2)cc(OC)c1OC | inactive | –
O=C(CSCc1ccc([N+](=O)[O-])cc1)NN=C1CCCCCC1 | inactive | –

Compound | Potency | activity change, negative = inhibition
CC(C)NC(=O)CN1CCN(C(=O)c2ccc3oc(CCCc4ccccc4)nc3c2)CC1 | inactive | –
N/C(=N\OC(=O)c1ccc2c(c1)OCO2)c1ccc(Br)cc1 | inconclusive: 35.5 µM [inhibitor, single point] | –
O=C(Nc1cccnc1)C1CCC(CNS(=O)(=O)c2cccc3nsnc23)CC1 (stereo not drawn) | inactive | –
CN(C)CCCNCC(=O)c1c(-c2ccccc2)n(C)c2ccccc12 | inconclusive: 7.08 µM [inhibitor, full curve, poor fit] | –
COc1cc(/C=N/NC(=O)COc2ccc(C)cc2)ccc1OC(=O)c1cccs1 | inactive | –
CCOc1ccc(-c2nonc2NC(=O)c2ccco2)cc1 | inactive | –
CCOC(=O)c1nc(S(C)(=O)=O)ncc1Cl | inconclusive: 9.2 µM [inhibitor, partial curve, poor fit] | –
Cc1ccc(NC(=S)NCCc2ccc(S(N)(=O)=O)cc2)cc1C | inactive | –
CCC1(c2ccccc2)NC(=O)N(CC(=O)Nc2cc(S(=O)(=O)N3CCCCC3)ccc2OC(C)C)C1=O (stereo not drawn) | inconclusive: 10 µM [inhibitor, partial curve, poor fit] | –
Cc1ccc(C)c(Cn2c3ccccc3c3cnn(CC(=O)NC4CCC(C)CC4)c(=O)c32)c1 (stereo not drawn) | inactive | –
O=C(Nc1cccc(S(=O)(=O)Nc2ccc(Cl)cc2)c1)c1cc2c(s1)CCCC2 | inconclusive: 17.8 µM [inhibitor, single point] | –
O=C(COc1ccc(Cl)cc1Cl)NC(=O)N1CCOCC1 | inactive | –
COc1cc(CNc2ccc(N3CCN(C(C)=O)CC3)cc2)ccc1OCc1ccc(F)cc1 | inconclusive: 8.91 µM [inhibitor, partial curve, poor fit] | –
Cc1ccc(NC(=O)C2CCN(S(=O)(=O)c3ccc4[nH]c(=O)oc4c3)CC2)cc1F | inconclusive: 31.6 µM [inhibitor, single point] | –
COc1ccc(/C=C/C(=O)c2nc3ccccc3n2CC(=O)c2ccc(OC)cc2)cc1 | inconclusive: 29.1 µM [inhibitor, single point] | –
O=C(CNC(=O)c1ccco1)NC1CCCCCC1 | inconclusive: 5.01 µM [activator, partial curve] | –
COc1cccc(CNC(=O)COC(=O)CCCNC(=O)c2ccc(Cl)cc2)c1 | – | inconclusive: 11.2% [activator]
CC(=O)Nc1ccc(NC(=O)c2ccc(COc3ccc(C)cc3)o2)cc1 | inconclusive: 17.8 µM [activator, partial curve, poor fit] | –
CCOC(=O)CCN1C(=O)[C@H]2[C@H]3[C@H](O)[C@H](O)C/C(=N/OCc4ccccc4)[C@@H]3CC[C@@H]2C1=O | inactive | –
COc1ccc(C(=O)N2CCC(C(=O)Nc3ccccc3C)CC2)cc1OC | inconclusive: 3.16 µM [inhibitor, single point] | –
CC(C)(CSc1ccccn1)NS(=O)(=O)c1ccccc1 | inconclusive: 6.31 µM [inhibitor, single point] | –
Cc1ccc(NC(=S)N(CCN(C)C)Cc2cc3cccc(C)c3[nH]c2=O)cc1 | inconclusive: 22.4 µM [inhibitor, single point] | –
C=CCc1ccccc1OCC(O)CN1C(=O)c2ccccc2C1=O (stereo not drawn) | inactive | –
CCCN(CCC)C(=O)Cn1c(=O)n(-c2ccc(C)c(C)c2)c(=O)c2c3c(sc21)CCCCC3 | inactive | –
COc1ccc(Cc2noc(CN3CCN(C4CCc5ccccc5C4)CC3)n2)cc1OC (stereo not drawn) | inconclusive: 25.1 µM [inhibitor, single point] | –

Compound | Potency | activity change, negative = inhibition
Cc1cc(NC(=O)c2cc(-c3cccc(Cl)c3)on2)nn1Cc1ccc(Cl)cc1 | inactive | –
Cc1cccc(OCCNC(=O)c2ncn[nH]2)c1 | inconclusive: 8.2 µM [activator, partial curve, poor fit] | –
COc1ccc(-c2oc3cc(O)c(OC)c(O)c3c(=O)c2OC)cc1O | inconclusive: 1.58 µM [inhibitor, full curve, poor fit] | –
CCOC(=O)c1cnc(-n2nc(C)cc2C)nc1NNc1ncc(-c2ccccc2)cn1 | active: 11.2 µM | –
CCc1ccc(NC(=O)COn2nnc3ccc(S(=O)(=O)N(C)C)cc32)cc1 | inconclusive: 29.1 µM [inhibitor, partial curve, poor fit] | –
CCc1nc2sc3c(c2c(=O)n1CCO)CCC3 | inactive | –
CCOC(=O)c1sc(NC(=O)c2ccc(S(=O)(=O)N(C)C)cc2)nc1C | inactive | –
Cc1ccc(CNC(=O)Cc2cn(C)c3ccccc23)cc1 | inconclusive: 0.562 µM [inhibitor, single point] | –
COc1ccc(SCC(=O)Nc2ccccc2Cl)cc1 | inconclusive: 14.1 µM [activator, partial curve, poor fit] | –
O=C(Cc1ccccc1)Nc1ccc2oc(=O)ccc2c1 | inactive | –
COc1ccc(NC(=O)CSc2nc(SC)ns2)cc1 | inconclusive: 1 µM [activator, partial curve, poor fit] | –
COCCCN1C(=O)c2[nH]nc(-c3ccccc3O)c2C1c1ccc(Cl)cc1 (stereo not drawn) | inconclusive: 16.4 µM [inhibitor, single point] | –
COc1ccc(C(=O)NC(=S)N2CCN(c3ccccc3OC)CC2)cc1 | inconclusive: 35.5 µM [inhibitor, single point] | –
Cc1csc(NC(=O)c2ccc(S(C)(=O)=O)cc2)n1 | inactive | –
c1cc2c(cc1NC1=NCCO1)CCCC2 | inconclusive: 35.5 µM [inhibitor, partial curve, poor fit] | –
O=C(Nc1ccc2c(c1)N(Cc1ccccc1)C(=O)c1ccccc1S2)NC1CC1 | inconclusive: 29.1 µM [inhibitor, single point] | –
CCC1CCCCN1S(=O)(=O)c1ccc(NC(=O)c2cccs2)cc1 (stereo not drawn) | inactive | –
CNC(=O)/C(=C\c1cccc(Oc2ccccc2)c1)NC(=O)c1ccccc1 | inactive | –
CC12CCC(C(=O)N(CCCCN3CCN(Cc4ccccc4)CC3)C1=O)C2(C)C (stereo not drawn) | inconclusive: 3.55 µM [activator, single point] | –
COc1ccc(C2c3ccc(O)cc3Oc3ncn(Cc4ccccc4)c(=N)c32)cc1OC (stereo not drawn) | inconclusive: 15.8 µM [inhibitor, partial curve, poor fit] | –
CN1CCCC(OC(=O)c2ccc3c(c2)OCCO3)C1 (stereo not drawn) | inconclusive: 12.6 µM [activator, single point] | –
CCOC(=O)Cn1c(=NC(=O)C2COc3ccccc3O2)sc2cc(S(N)(=O)=O)ccc21 (stereo not drawn) | inactive | –
Cn1c(N2CCN(C(=O)Nc3ccc(C(F)(F)F)cc3)CC2)nc2ccccc21 | inconclusive: 13 µM [inhibitor, partial curve, poor fit] | –

A different layout for some results above:
Compound,Potency,"activity change, negative = inhibition"
Cc1cccc(OCCNC(=O)c2ncn[nH]2)c1,"inconclusive: 8.2 µM [activator, partial curve, poor fit]",–
COc1ccc(-c2oc3cc(O)c(OC)c(O)c3c(=O)c2OC)cc1O,"inconclusive: 1.58 µM [inhibitor, full curve, poor fit]",–
CCOC(=O)c1cnc(-n2nc(C)cc2C)nc1NNc1ncc(-c2ccccc2)cn1,active: 11.2 µM,–
CCc1nc2sc3c(c2c(=O)n1CCO)CCC3,inactive,–
CCOC(=O)c1sc(NC(=O)c2ccc(S(=O)(=O)N(C)C)cc2)nc1C,inactive,–
Cc1ccc(CNC(=O)Cc2cn(C)c3ccccc23)cc1,"inconclusive: 0.562 µM [inhibitor, single point]",–
COc1ccc(NC(=O)CSc2nc(SC)ns2)cc1,"inconclusive: 1 µM [activator, partial curve, poor fit]",–
COCCCN1C(=O)c2[nH]nc(-c3ccccc3O)c2C1c1ccc(Cl)cc1 (stereo not drawn),"inconclusive: 16.4 µM [inhibitor, single point]",–
COc1ccc(C(=O)NC(=S)N2CCN(c3ccccc3OC)CC2)cc1,"inconclusive: 35.5 µM [inhibitor, single point]",–
Cc1csc(NC(=O)c2ccc(S(C)(=O)=O)cc2)n1,inactive,–
c1cc2c(cc1NC1=NCCO1)CCCC2,"inconclusive: 35.5 µM [inhibitor, partial curve, poor fit]",–
CCC1CCCCN1S(=O)(=O)c1ccc(NC(=O)c2cccs2)cc1 (stereo not drawn),inactive,–
CNC(=O)/C(=C\c1cccc(Oc2ccccc2)c1)NC(=O)c1ccccc1,inactive,–
CC12CCC(C(=O)N(CCCCN3CCN(Cc4ccccc4)CC3)C1=O)C2(C)C (stereo not drawn),"inconclusive: 3.55 µM [activator, single point]",–
COc1ccc(C2c3ccc(O)cc3Oc3ncn(Cc4ccccc4)c(=N)c32)cc1OC (stereo not drawn),"inconclusive: 15.8 µM [inhibitor, partial curve, poor fit]",–
CCOC(=O)Cn1c(=NC(=O)C2COc3ccccc3O2)sc2cc(S(N)(=O)=O)ccc21 (stereo not drawn),inactive,–
Cn1c(N2CCN(C(=O)Nc3ccc(C(F)(F)F)cc3)CC2)nc2ccccc21,"inconclusive: 13 µM [inhibitor, partial curve, poor fit]",–
